Data on one molecule can be found in doi:10.1101/2020.06.07.137802 (bioRxiv, 2020).

Protein sequences, listed by entry. Tags and fused reporters are not part of them. Residues count along the entry.
UniProt O14786, residues 22-923: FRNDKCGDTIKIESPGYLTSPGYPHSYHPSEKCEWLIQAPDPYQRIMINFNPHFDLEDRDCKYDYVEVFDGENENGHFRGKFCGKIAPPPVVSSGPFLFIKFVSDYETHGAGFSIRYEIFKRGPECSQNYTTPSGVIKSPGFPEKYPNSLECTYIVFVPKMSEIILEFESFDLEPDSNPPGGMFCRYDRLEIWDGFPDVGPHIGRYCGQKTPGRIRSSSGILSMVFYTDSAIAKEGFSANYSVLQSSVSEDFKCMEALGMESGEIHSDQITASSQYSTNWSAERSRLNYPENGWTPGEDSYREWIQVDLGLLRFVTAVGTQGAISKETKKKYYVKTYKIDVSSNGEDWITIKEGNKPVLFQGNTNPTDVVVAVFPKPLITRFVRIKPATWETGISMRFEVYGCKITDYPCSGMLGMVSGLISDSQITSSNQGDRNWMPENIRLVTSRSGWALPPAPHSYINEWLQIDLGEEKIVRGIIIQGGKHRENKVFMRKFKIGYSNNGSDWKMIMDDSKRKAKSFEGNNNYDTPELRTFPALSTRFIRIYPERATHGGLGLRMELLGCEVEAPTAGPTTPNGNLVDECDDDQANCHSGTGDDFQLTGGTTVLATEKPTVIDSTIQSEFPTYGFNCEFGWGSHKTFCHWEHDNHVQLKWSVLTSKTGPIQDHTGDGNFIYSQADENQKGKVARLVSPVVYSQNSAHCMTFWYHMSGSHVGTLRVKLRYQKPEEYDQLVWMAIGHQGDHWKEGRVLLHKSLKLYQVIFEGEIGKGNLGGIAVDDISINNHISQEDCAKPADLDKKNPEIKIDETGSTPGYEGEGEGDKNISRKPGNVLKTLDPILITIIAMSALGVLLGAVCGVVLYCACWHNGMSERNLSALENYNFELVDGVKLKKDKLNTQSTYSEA

For assay [1], the target named is neuropilin-1 (NRP1), expressed in HEK-293T cells (human) (UniProt O14786). In words: confocal microscopy of fluorescent peptide-coated silver nanoparticles on cells.
Assay [2] has as its target neuropilin-1 (NRP1), endogenous on PPC1 cells (human (endogenous in PPC-1)) (UniProt O14786). Described as above.

Results are given in words; binding and its absence hold for the method and conditions named. Some binding calls cover weakened binding; strength is not graded here.

In the case of RPARPAR (biotin-Ahx on the N-terminus; free C-terminal carboxyl (OH)) [biotin-Ahx-RPARPAR-OH, prototypic NRP1-binding CendR peptide, on silver nanoparticles (AgNP-CendR)], the binding entry in assay [1] and in assay [2] was “binds” in each case.
